# Results are given in words; binding and its absence hold for the method and conditions named. Some entries that bind do so weakly or less than the wild type.
# Experiments:
# Assay in all cases: native gel or EMSA; BN-PAGE of purified AcrB proteins; loading buffer with 1% dodecylmaltoside, 0.1% Coomassie G-250, pH 7.0; 4-15% gradient gel, 15 mA, 4°C, 2 h; trimer and monomer bands quantified with ImageJ; trimer to monomers; both purified
# [1] = molecular target: AcrB_(P223G/Q737L) (E. coli) (UniProt P31224)
# [2] = molecular target: AcrB_(P223G/E810K) (E. coli) (UniProt P31224)
# [3] = molecular target: AcrB_(P223G) (E. coli) (UniProt P31224)
# [4] = molecular target: AcrB_(P223G/G257V) (E. coli) (UniProt P31224)
# [5] = molecular target: AcrB_(P223G/T199M) (E. coli) (UniProt P31224)
# [6] = molecular target: AcrB_(P223G/A209V) (E. coli) (UniProt P31224)
# [7] = molecular target: AcrB_(P223G/D256N) (E. coli) (UniProt P31224)
# [8] = molecular target: AcrB_(P223G/M662I) (E. coli) (UniProt P31224)
# [9] = molecular target: AcrB_(P223G/P800S) (E. coli) (UniProt P31224)
# [10] = molecular target: AcrB_(P223G/D788K) (E. coli) (UniProt P31224)
substance,measurement,setting,value
AcrB_(P223G/Q737L) (from UniProt P31224 1-1049),binding,[1],binds weakly
AcrB_(P223G/E810K) (from UniProt P31224 1-1049),binding,[2],binds weakly
AcrB_(P223G) (from UniProt P31224 1-1049),binding,[3],binds weakly
AcrB_(P223G/G257V) (from UniProt P31224 1-1049),binding,[4],binds weakly
AcrB_(P223G/T199M) (from UniProt P31224 1-1049),binding,[5],binds weakly
AcrB_(P223G/A209V) (from UniProt P31224 1-1049),binding,[6],binds weakly
AcrB_(P223G/D256N) (from UniProt P31224 1-1049),binding,[7],binds weakly
AcrB_(P223G/M662I) (from UniProt P31224 1-1049),binding,[8],binds weakly
AcrB_(P223G/P800S) (from UniProt P31224 1-1049),binding,[9],binds weakly
AcrB_(P223G/D788K) (from UniProt P31224 1-1049),binding,[10],binds weakly
